Reference: patent publication US20250163138A1 (Alexion, published 2025)
These are yes or no findings as the source states them, for the method shown. Some results given as binding are weak or reduced against the parent protein; the word gives no strength.

Protein sequences, listed by entry. Tags and fused reporters are not part of them. Residues count along the entry.
UniProt P02768, residues 25-609: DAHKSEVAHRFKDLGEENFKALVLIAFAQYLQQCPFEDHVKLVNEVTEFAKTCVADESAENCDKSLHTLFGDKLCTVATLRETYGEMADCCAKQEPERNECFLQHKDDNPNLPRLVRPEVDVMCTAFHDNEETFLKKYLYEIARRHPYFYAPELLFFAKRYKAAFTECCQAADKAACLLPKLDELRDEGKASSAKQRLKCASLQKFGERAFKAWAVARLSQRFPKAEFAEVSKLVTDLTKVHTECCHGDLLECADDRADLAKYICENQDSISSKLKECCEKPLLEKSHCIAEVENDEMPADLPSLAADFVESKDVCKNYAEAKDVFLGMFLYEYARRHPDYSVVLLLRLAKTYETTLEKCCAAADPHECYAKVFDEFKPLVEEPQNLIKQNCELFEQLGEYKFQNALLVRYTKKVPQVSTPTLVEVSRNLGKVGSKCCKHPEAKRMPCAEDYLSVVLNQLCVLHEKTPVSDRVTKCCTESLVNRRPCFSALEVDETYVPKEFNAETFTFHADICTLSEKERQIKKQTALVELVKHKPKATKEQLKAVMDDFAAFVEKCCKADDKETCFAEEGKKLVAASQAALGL
UniProt P01031, residues 19-1676: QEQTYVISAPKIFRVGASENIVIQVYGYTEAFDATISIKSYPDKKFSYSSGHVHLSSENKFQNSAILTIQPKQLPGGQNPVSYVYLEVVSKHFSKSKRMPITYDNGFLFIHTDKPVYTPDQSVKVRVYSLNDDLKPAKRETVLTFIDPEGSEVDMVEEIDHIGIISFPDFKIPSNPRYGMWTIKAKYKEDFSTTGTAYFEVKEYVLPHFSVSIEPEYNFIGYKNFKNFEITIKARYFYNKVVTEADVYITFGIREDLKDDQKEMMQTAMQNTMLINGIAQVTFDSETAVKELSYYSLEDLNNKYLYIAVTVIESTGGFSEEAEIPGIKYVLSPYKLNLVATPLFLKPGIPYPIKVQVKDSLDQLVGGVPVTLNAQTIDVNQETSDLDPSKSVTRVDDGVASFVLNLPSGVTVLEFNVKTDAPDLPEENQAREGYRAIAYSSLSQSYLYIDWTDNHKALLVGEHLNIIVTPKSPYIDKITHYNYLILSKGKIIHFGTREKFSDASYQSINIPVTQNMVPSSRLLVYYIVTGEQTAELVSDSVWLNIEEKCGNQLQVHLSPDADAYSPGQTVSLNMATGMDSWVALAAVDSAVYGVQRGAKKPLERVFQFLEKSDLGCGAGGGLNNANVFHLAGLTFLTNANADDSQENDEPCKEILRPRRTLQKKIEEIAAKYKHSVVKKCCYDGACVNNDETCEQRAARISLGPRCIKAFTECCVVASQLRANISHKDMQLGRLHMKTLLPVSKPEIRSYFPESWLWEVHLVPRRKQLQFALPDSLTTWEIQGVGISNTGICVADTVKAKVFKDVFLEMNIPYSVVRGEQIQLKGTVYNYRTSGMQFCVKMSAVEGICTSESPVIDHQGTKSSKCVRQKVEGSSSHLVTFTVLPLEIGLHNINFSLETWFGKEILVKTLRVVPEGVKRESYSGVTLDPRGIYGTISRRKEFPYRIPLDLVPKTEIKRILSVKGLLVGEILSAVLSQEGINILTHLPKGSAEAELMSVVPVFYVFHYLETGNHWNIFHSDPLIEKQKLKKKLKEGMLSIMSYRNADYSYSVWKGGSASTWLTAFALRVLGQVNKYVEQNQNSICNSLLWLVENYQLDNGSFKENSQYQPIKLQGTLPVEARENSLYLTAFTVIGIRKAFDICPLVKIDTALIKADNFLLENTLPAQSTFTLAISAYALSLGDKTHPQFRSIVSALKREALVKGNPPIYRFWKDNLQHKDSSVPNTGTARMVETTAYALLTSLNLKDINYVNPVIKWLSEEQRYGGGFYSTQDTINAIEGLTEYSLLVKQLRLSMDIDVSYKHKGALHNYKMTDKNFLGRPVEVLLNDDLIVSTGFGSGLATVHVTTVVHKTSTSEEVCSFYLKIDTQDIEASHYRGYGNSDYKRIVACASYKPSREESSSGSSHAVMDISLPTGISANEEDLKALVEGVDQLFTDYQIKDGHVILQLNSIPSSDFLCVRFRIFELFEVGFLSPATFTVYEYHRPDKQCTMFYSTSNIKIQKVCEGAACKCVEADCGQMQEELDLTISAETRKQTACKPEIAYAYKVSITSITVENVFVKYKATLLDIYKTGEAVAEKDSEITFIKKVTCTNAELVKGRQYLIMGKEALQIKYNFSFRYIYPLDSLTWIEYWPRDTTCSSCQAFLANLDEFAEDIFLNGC

Experiments:
[1] = target: T1, human serum albumin (human, UniProt P02768 25-609); assay: sandwich: biotin-hC5 on CAP chip, fusion, then albumin; pH 7.4
T1 construct: also called HSA; human albumin

[2] = target: T2, human complement protein C5 (human, UniProt P01031 19-1676); assay: as above
T2 construct: Native C5 is a two-chain protein made from one precursor; also called hC5; human C5

[3] = target: T1, human serum albumin; assay: SPR (Biacore 3000), biotin-hC5 on CAP chip, pH 7.4
[4] = target: T2, human complement protein C5; assay: SPR (Biacore 3000), biotin-hC5 on CAP chip, pH 7.4

Measured: binding

B1: TPP-3225 (bispecific antibody)
chain: EVQLVESGGGLVKPGGSLRLSCAASGRPVSNYAAAWFRQAPGKEREFVSAINWQKTATYADSVKGRFTISRDNAKNSLYLQMNSLRAEDTAVYYCAAVFRVVAPKTQYDYDYWGQGTLVTVSSGGGESGGGGSEVQLVESGGGLVQPGGSLRLSCAASGRAHSDYAMAWFRQAPGQEREFVAGIGWSGGDTLYADSVRGRFTNSRDNSKNTLYLQMNSLRAEDTAVYYCAARQGQYIYSSMRSDSYDYWGQGTLVTVSS
binds: all assays above

B2: TPP-3226 (bispecific antibody)
chain: EVQLVESGGGLVKPGGSLRLSCAASGRPVSNYAAAWFRQAPGKEREFVSAINWQKTATYADSVKGRFTISRDNAKNSLYLQMNSLRAEDTAVYYCAAVFRVVAPKTQYDYDYWGQGTLVTVSSASTKGPEVQLVESGGGLVQPGGSLRLSCAASGRAHSDYAMAWFRQAPGQEREFVAGIGWSGGDTLYADSVRGRFTNSRDNSKNTLYLQMNSLRAEDTAVYYCAARQGQYIYSSMRSDSYDYWGQGTLVTVSS
binds: all assays above

B3: TPP-3227 (bispecific antibody)
chain: EVQLVESGGGLVKPGGSLRLSCAASGRPVSNYAAAWFRQAPGKEREFVSAINWQKTATYADSVKGRFTISRDNAKNSLYLQMNSLRAEDTAVYYCAAVFRVVAPKTQYDYDYWGQGTLVTVSSASTKGPSVFPLAPEVQLVESGGGLVQPGGSLRLSCAASGRAHSDYAMAWFRQAPGQEREFVAGIGWSGGDTLYADSVRGRFTNSRDNSKNTLYLQMNSLRAEDTAVYYCAARQGQYIYSSMRSDSYDYWGQGTLVTVSS
binds: all assays above

B4: TPP-3228 (bispecific antibody)
chain: EVQLVESGGGLVKPGGSLRLSCAASGRPVSNYAAAWFRQAPGKEREFVSAINWQKTATYADSVKGRFTISRDNAKNSLYLQMNSLRAEDTAVYYCAAVFRVVAPKTQYDYDYWGQGTLVTVSSGGGGGGGPEVQLVESGGGLVQPGGSLRLSCAASGRAHSDYAMAWFRQAPGQEREFVAGIGWSGGDTLYADSVRGRFTNSRDNSKNTLYLQMNSLRAEDTAVYYCAARQGQYIYSSMRSDSYDYWGQGTLVTVSS
binds: all assays above

B5: TPP-3229 (bispecific antibody)
chain: EVQLVESGGGLVKPGGSLRLSCAASGRPVSNYAAAWFRQAPGKEREFVSAINWQKTATYADSVKGRFTISRDNAKNSLYLQMNSLRAEDTAVYYCAAVFRVVAPKTQYDYDYWGQGTLVTVSSGGGGGGGGPEVQLVESGGGLVQPGGSLRLSCAASGRAHSDYAMAWFRQAPGQEREFVAGIGWSGGDTLYADSVRGRFTNSRDNSKNTLYLQMNSLRAEDTAVYYCAARQGQYIYSSMRSDSYDYWGQGTLVTVSS
binds: all assays above

B6: TPP-3230 (bispecific antibody)
chain: EVQLVESGGGLVKPGGSLRLSCAASGRPVSNYAAAWFRQAPGKEREFVSAINWQKTATYADSVKGRFTISRDNAKNSLYLQMNSLRAEDTAVYYCAAVFRVVAPKTQYDYDYWGQGTLVTVSSPAPNLLGGPEVQLVESGGGLVQPGGSLRLSCAASGRAHSDYAMAWFRQAPGQEREFVAGIGWSGGDTLYADSVRGRFTNSRDNSKNTLYLQMNSLRAEDTAVYYCAARQGQYIYSSMRSDSYDYWGQGTLVTVSS
binds: all assays above
